The shares of active, inactive and inconclusive entries below differ from those in the screen. The source made the active and inactive calls.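 The calls were made as follows: active = viability loss whose fitted half-maximal concentration is at most twice the top valid tested dose; inconclusive = flat curve with 30 to 70% loss, or poor fit; inactive = the rest.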
Test: viability loss in HepG2 liver cells – cell-based, ATP luminescence, cherry-pick, set 6, cytotoxicity control, dose response (AID 1053125);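 also: negative values mean loss of viability signal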
Settings: ATP luminescence (CellTiter-Glo), 72 h; at 26 µM (top of the series)

SMILES	activity change, negative = cytotoxicity
COc1ccccc1/C=N/Nc1nc(C)cc(=O)[nH]1	inactive: -7.23%
C#CCOc1ccc(C2C(C#N)=C(N)Oc3cc(O)ccc32)cc1 (configuration not stated)	inconclusive: 6.07%
